PubChem BioAssay AID1224828 – NIAID – 2016
In all, the deposit lists about 17,000 reagents; shown is a random part of them. Of all reagents, 762 (4.5%) were called active. 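Active calls include both raised and lowered p65 entry, mostly lowered; wells with fewer than 50 cells lack a z-score.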 The raw values are shown without normalisation. Reagent sequences are not shown.

Assay: 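Find genes required for NF-kappaB p65 moving into the nucleus after LPS in mouse macrophages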 (primary screen)
Cells: mouse RAW264.7 G9 macrophage reporter cells (GFP-p65, Tnf promoter-mCherry)
Reagents: siRNA pool against mouse genes, 100 nM
Timing: 2 days siRNA transfection, then 40 min LPS before fixation
Treatment: LPS (Salmonella minnesota R595) at 10 ng/ml
Measurement: 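Microscopy ratio of nuclear to perinuclear-ring GFP-p65 signal, scaled to the plate median; gene score is the average of two replicate robust z-scores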
Reading the numbers: p65 translocation robust z-score: higher = more nuclear NF-kappaB p65 after LPS than the plate median; nuclear/cytoplasmic p65 ratio: higher = more nuclear NF-kappaB p65
Rule for the call: 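Called active when z exceeds 3.3 or falls under -1.56 (median of Tlr4 controls), giving activity score of at least 50; no calls for control wells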
Calls: active = hit (p65 shift raised or lowered); inactive = no clear change

After knock-down of Trpv4 (GeneID 63873), the record shows p65 translocation robust z-score -0.59; nuclear/cytoplasmic p65 ratio, rep 1 = 1.44; nuclear/cytoplasmic p65 ratio, rep 2 = 1.41; low cell count flag enough cells to score; inactive.
Gpr33 (GeneID 14762) showed p65 translocation robust z-score 1.35; nuclear/cytoplasmic p65 ratio, rep 1 = 1.76; nuclear/cytoplasmic p65 ratio, rep 2 = 1.75; low cell count flag enough cells to score; inactive.
Depletion of Ttc28 (GeneID 209683) gave: p65 translocation robust z-score 2.43; nuclear/cytoplasmic p65 ratio, rep 1 = 1.97; nuclear/cytoplasmic p65 ratio, rep 2 = 2.06; low cell count flag enough cells to score; inactive.
Knock-down of Unk (GeneID 217331) came out at: nuclear/cytoplasmic p65 ratio, rep 1 = 1.16; nuclear/cytoplasmic p65 ratio, rep 2 = 0.999; low cell count flag fewer than 50 cells per well; well left out of scoring; inactive.
For Epn1 (GeneID 13854) the deposit lists p65 translocation robust z-score 0.42; nuclear/cytoplasmic p65 ratio, rep 1 = 1.64; nuclear/cytoplasmic p65 ratio, rep 2 = 1.54; low cell count flag enough cells to score; inactive.
Knock-down of Or2z2 (GeneID 18329) resulted in: nuclear/cytoplasmic p65 ratio, rep 1 = 1.89; nuclear/cytoplasmic p65 ratio, rep 2 = 1.37; low cell count flag fewer than 50 cells per well; well left out of scoring; inactive.
Knock-down of Or6e1 (GeneID 18348) gave: p65 translocation robust z-score 0.19; nuclear/cytoplasmic p65 ratio, rep 1 = 1.47; nuclear/cytoplasmic p65 ratio, rep 2 = 1.25; low cell count flag enough cells to score; inactive.
Silencing of Dtx3 (GeneID 80904) resulted in: p65 translocation robust z-score -2.66; nuclear/cytoplasmic p65 ratio, rep 1 = 1.07; nuclear/cytoplasmic p65 ratio, rep 2 = 1.05; low cell count flag enough cells to score; active.
Emcn (GeneID 59308) gave p65 translocation robust z-score -0.08; nuclear/cytoplasmic p65 ratio, rep 1 = 1.44; nuclear/cytoplasmic p65 ratio, rep 2 = 1.37; low cell count flag enough cells to score; inactive.
Silencing of Dkkl1 (GeneID 50722) gave: p65 translocation robust z-score -1.28; nuclear/cytoplasmic p65 ratio, rep 1 = 1.31; nuclear/cytoplasmic p65 ratio, rep 2 = 1.59; low cell count flag enough cells to score; inactive.
Klc2 (GeneID 16594) gave p65 translocation robust z-score -0.58; nuclear/cytoplasmic p65 ratio, rep 1 = 1.38; nuclear/cytoplasmic p65 ratio, rep 2 = 1.32; low cell count flag enough cells to score; inactive.
After knock-down of Vcam1 (GeneID 22329), the screen gave p65 translocation robust z-score -0.07; nuclear/cytoplasmic p65 ratio, rep 1 = 1.44; nuclear/cytoplasmic p65 ratio, rep 2 = 1.55; low cell count flag enough cells to score; inactive.
For Gtf2a2 (GeneID 235459), the values are p65 translocation robust z-score -0.03; nuclear/cytoplasmic p65 ratio, rep 1 = 1.58; nuclear/cytoplasmic p65 ratio, rep 2 = 1.55; low cell count flag enough cells to score; inactive.
Defa21 (GeneID 66298) scored nuclear/cytoplasmic p65 ratio, rep 1 = 1.29; nuclear/cytoplasmic p65 ratio, rep 2 = 1.27; low cell count flag fewer than 50 cells per well; well left out of scoring; inactive.
After knock-down of Gm4861 (GeneID 229862), the record shows p65 translocation robust z-score -0.36; nuclear/cytoplasmic p65 ratio, rep 1 = 1.41; nuclear/cytoplasmic p65 ratio, rep 2 = 1.46; low cell count flag enough cells to score; inactive.
Knock-down of Srrt (GeneID 83701) came out at: p65 translocation robust z-score -0.73; nuclear/cytoplasmic p65 ratio, rep 1 = 1.43; nuclear/cytoplasmic p65 ratio, rep 2 = 1.47; low cell count flag enough cells to score; inactive.
For Mrpl18 (GeneID 67681), the entry reads p65 translocation robust z-score 1.2; nuclear/cytoplasmic p65 ratio, rep 1 = 1.98; nuclear/cytoplasmic p65 ratio, rep 2 = 1.77; low cell count flag enough cells to score; inactive.
Hoxa11 (GeneID 15396) scored p65 translocation robust z-score 0.12; nuclear/cytoplasmic p65 ratio, rep 1 = 1.47; nuclear/cytoplasmic p65 ratio, rep 2 = 1.37; low cell count flag enough cells to score; inactive.
Knock-down of Ctsr (GeneID 56835) came out at: p65 translocation robust z-score -1.17; nuclear/cytoplasmic p65 ratio, rep 1 = 1.33; nuclear/cytoplasmic p65 ratio, rep 2 = 1.67; low cell count flag enough cells to score; inactive.
With knock-down of Ctsc (GeneID 13032), the screen gave p65 translocation robust z-score 1.85; nuclear/cytoplasmic p65 ratio, rep 1 = 1.75; nuclear/cytoplasmic p65 ratio, rep 2 = 1.59; low cell count flag enough cells to score; inactive.
Prrt1 (GeneID 260297) showed nuclear/cytoplasmic p65 ratio, rep 1 = 1.03; nuclear/cytoplasmic p65 ratio, rep 2 = 1.09; low cell count flag fewer than 50 cells per well; well left out of scoring; inactive.

Hits (from the list above):
Dtx3 (GeneID 80904) → p65 translocation robust z-score: -2.66; nuclear/cytoplasmic p65 ratio, rep 1: 1.07; nuclear/cytoplasmic p65 ratio, rep 2: 1.05; low cell count flag: enough cells to score; outcome: active
